Values quoted from earlier work as cited in patent publication US11174267B2, “Spiroindolinones and therapeutic uses thereof” (The Regents of the University of California, priority 2015, dated 2021).
Some results were stated once for a whole list of compounds, not compound by compound. At least one structure is not confirmed: it was looked up by name or label, or the drawing left a doubt.

Test system: Candida
Conditions: below 1 μg/mL, but not below 0.1 μg/mL; cited from earlier work
For `C[C@H]1c2cccc(O)c2C(=O)C2=C(O)[C@]3(O)C(=O)C(C(N)=O)=C(O)[C@@H](N(C)C)[C@@H]3[C@@H](O)[C@@H]21` [doxycycline], the “MIC90 in synergy with fluconazole” value is listed as “below 1 μg/mL”.
In the case of `O=c1cc(-c2ccccc2)oc2cc(O)c(O)c(O)c12` [balcalein], the “MIC90 in synergy with fluconazole” value is listed as “below 1 μg/mL”.
In the case of `COC(=O)C1=CC[C@@]23CC[C@@H]([C@@](C)(/C=C/C=C(\C)C(=O)O)OC2=O)[C@@]3(OC(C)=O)CC1` [pseudolaric acid B], the “MIC90 in synergy with fluconazole” value is given as “below 1 μg/mL”.
For `CCC(C)(C)C(=O)O[C@H]1C[C@@H](C)C=C2C=C[C@H](C)[C@H](CC[C@@H]3C[C@@H](O)CC(=O)O3)[C@H]21` [simvastatin], the “MIC90 in synergy with fluconazole” value is listed as “below 1 μg/mL”.
For `O=c1c(O)c(-c2ccc(O)c(O)c2)oc2cc(O)cc(O)c12` [quercetin], the “MIC90 in synergy with fluconazole” value is given as “below 1 μg/mL”.
In the case of `Oc1cc(O)c2c(c1)O[C@H](c1cc(O)c(O)c(O)c1)[C@H](O)C2` [epigallocatechin], the “MIC90 in synergy with fluconazole” value is listed as “below 1 μg/mL”.
For `COC1=C2C[C@@H](C)C[C@H](OC)[C@H](O)[C@@H](C)/C=C(\C)[C@H](OC(N)=O)[C@@H](OC)/C=C\C=C(/C)C(=O)NC(=CC1=O)C2=O` [geldanamycin], the “MIC90 in synergy with fluconazole” value is listed as “below 1 μg/mL”.
For `CN(C/C=C/C#CC(C)(C)C)Cc1cccc2ccccc12` [terbinafine], the “MIC90 in synergy with fluconazole” value is listed as “below 1 μg/mL”.
For `O=C(c1ccccc1)c1ccc2n1CCC2C(=O)O` (stereo not drawn) [ketorolac], the “MIC90 in synergy with fluconazole” value is listed as “below 1 μg/mL”.
In the case of `O=C(O)Cc1ccccc1Nc1c(Cl)cccc1Cl` [declofenac], the “MIC90 in synergy with fluconazole” value is listed as “below 1 μg/mL”.
In the case of `C=CCS[S+]([O-])CC=C` (stereo not drawn) [allicin], the “MIC90 in synergy with fluconazole” value is listed as “below 1 μg/mL”.

Test system: partially resistant clinical strain CaCi-8
Conditions: with fluconazole; cited from earlier work
For `COC(=O)Cn1nc(-c2cccc(OC)c2)c2ccccc21` [ML212], the lowest active concentration is listed as no less than 0.7 µM.
